Measured values taken from article PMC8213057, “Targeting ALK2: An Open Science Approach to Developing Therapeutics for the Treatment of Diffuse Intrinsic Pontine Glioma” (Journal of Medicinal Chemistry, 2020).

What was measured:
PKCb2 = PKCb2 (Homo sapiens, UniProt P05771); experiment: biochemical; settings: read-out: % enzyme activity, 1 μM; Run 1, Run 2
c-Src = c-Src (Homo sapiens, UniProt P12931); settings: 1 μM; Run 1, Run 2
EPHA3 = EPHA3 (Homo sapiens, UniProt P29320); settings: 1 μM; Run 1, Run 2
SRPK2 = SRPK2 (Homo sapiens, UniProt P78362); experiment: biochemical; settings: read-out: % enzyme activity, 1 μM; Run 1, Run 2
OSR1/OXSR1 = OSR1/OXSR1 (Homo sapiens, UniProt O95747); experiment: biochemical; settings: read-out: % enzyme activity, 1 μM; Run 1, Run 2
TEC = TEC (Homo sapiens, UniProt P42680); settings: 1 μM; Run 1, Run 2
SRPK1 = SRPK1 (Homo sapiens, UniProt Q96SB4); experiment: biochemical; settings: read-out: % enzyme activity, 1 μM; Run 1, Run 2
CDK3/cyclin E = CDK3/cyclin E (Homo sapiens, UniProt Q00526); settings: 1 μM; Run 1, Run 2
LIMK2 = LIMK2 (Homo sapiens, UniProt P53671); settings: 1 μM; Run 1, Run 2
PKAcb = PKAcb (Homo sapiens, UniProt P22694); settings: 1 μM; Run 1, Run 2
RAF1 = RAF1 (Homo sapiens, UniProt P04049); settings: 1 μM; Run 1, Run 2
ROS/ROS1 = ROS/ROS1 (Homo sapiens, UniProt P08922); experiment: biochemical; settings: read-out: % enzyme activity, 1 μM; Run 1, Run 2
CAMK1b = CAMK1b (Homo sapiens, UniProt Q6P2M8); settings: 1 μM; Run 1, Run 2
FAK/PTK2 = FAK/PTK2 (Homo sapiens, UniProt Q05397); settings: 1 μM; Run 1, Run 2
IRAK4 = IRAK4 (Homo sapiens, UniProt Q9NWZ3); experiment: biochemical; settings: read-out: % enzyme activity, 1 μM; Run 1, Run 2
SSTK/TSSK6 = SSTK/TSSK6 (Homo sapiens, UniProt Q9BXA6); experiment: biochemical; settings: read-out: % enzyme activity, 1 μM; Run 1, Run 2
CAMK2d = CAMK2d (Homo sapiens, UniProt Q13557); experiment: biochemical; settings: read-out: % enzyme activity, 1 μM; Run 1, Run 2
PBK/TOPK = PBK/TOPK (Homo sapiens, UniProt Q96KB5); settings: 1 μM; Run 1, Run 2
FGFR1 [1] = molecular target: T1, FGFR1 (Homo sapiens, UniProt P11362); experiment: biochemical; settings: read-out: % enzyme activity, 1 μM; Run 1, Run 2
CLK2 = CLK2 (Homo sapiens, UniProt P49760); experiment: biochemical; settings: read-out: % enzyme activity, 1 μM; Run 1, Run 2
PKA = PKA (Homo sapiens, UniProt P17612); experiment: biochemical; settings: read-out: % enzyme activity, 1 μM; Run 1, Run 2
PLK4/SAK = PLK4/SAK (Homo sapiens, UniProt O00444); settings: 1 μM; Run 1, Run 2
KDR/VEGFR2 = KDR/VEGFR2 (Homo sapiens, UniProt P35968); experiment: biochemical; settings: read-out: % enzyme activity, 1 μM; Run 1, Run 2
MRCKa/CDC42BPA = MRCKa/CDC42BPA (Homo sapiens, UniProt Q5VT25); settings: 1 μM; Run 1, Run 2
HPK1/MAP4K1 = HPK1/MAP4K1 (Homo sapiens, UniProt Q92918); settings: 1 μM; Run 1, Run 2
MST1/STK4 = MST1/STK4 (Homo sapiens, UniProt Q13043); settings: 1 μM; Run 1, Run 2
PKCeta = PKCeta (Homo sapiens, UniProt P24723); settings: 1 μM; Run 1, Run 2
PHKg2 = PHKg2 (Homo sapiens, UniProt P15735); experiment: biochemical; settings: read-out: % enzyme activity, 1 μM; Run 1, Run 2
ITK = ITK (Homo sapiens, UniProt Q08881); settings: 1 μM; Run 1, Run 2
VRK1 = VRK1 (Homo sapiens, UniProt Q99986); experiment: biochemical; settings: read-out: % enzyme activity, 1 μM; Run 1, Run 2
RIPK5 = RIPK5 (Homo sapiens, UniProt Q6XUX3); settings: 1 μM; Run 1, Run 2
EPHB2 = EPHB2 (Homo sapiens, UniProt P29323); settings: 1 μM; Run 1, Run 2
SGK2 = SGK2 (Homo sapiens, UniProt Q9HBY8); experiment: biochemical; settings: read-out: % enzyme activity, 1 μM; Run 1, Run 2
KSR1 = KSR1 (Homo sapiens, UniProt Q8IVT5); settings: 1 μM; Run 1, Run 2
FGFR1 [2] = molecular target: T1, FGFR1; settings: 1 μM; Run 1, Run 2
CAMK1a = CAMK1a (Homo sapiens, UniProt Q14012); settings: 1 μM; Run 1, Run 2
PKCtheta = PKCtheta (Homo sapiens, UniProt Q04759); settings: 1 μM; Run 1, Run 2
STK38/NDR1 = STK38/NDR1 (Homo sapiens, UniProt Q15208); experiment: biochemical; settings: read-out: % enzyme activity, 1 μM; Run 1, Run 2
PIM3 = PIM3 (Homo sapiens, UniProt Q86V86); experiment: biochemical; settings: read-out: % enzyme activity, 1 μM; Run 1, Run 2
CAMK1g = CAMK1g (Homo sapiens, UniProt Q96NX5); settings: 1 μM; Run 1, Run 2
JNK1 = JNK1 (Homo sapiens, UniProt P45983); experiment: biochemical; settings: read-out: % enzyme activity, 1 μM; Run 1, Run 2
CDK1/cyclin E = CDK1/cyclin E (Homo sapiens, UniProt P06493); experiment: biochemical; settings: read-out: % enzyme activity, 1 μM; Run 1, Run 2
CLK4 = CLK4 (Homo sapiens, UniProt Q9HAZ1); settings: 1 μM; Run 1, Run 2

Structure (SMILES): COc1cc(-c2cncc(-c3ccc(N4CCN(C(C)C)CC4)cc3)c2C)cc(F)c1C(N)=O [Compound 26b, 2-Fluoro-4-(5-(4-(4-isopropylpiperazin-1-yl)phenyl)-4-methylpyridin-3-yl)-6-methoxybenzamide]
- remaining activity at 1 µM (PKCb2): 105%
- % enzyme activity (c-Src): 98.08%
- % enzyme activity (EPHA3): 100.47%
- remaining activity at 1 µM (SRPK2): 97.2%
- remaining activity at 1 µM (OSR1/OXSR1): 96.1%
- % enzyme activity (TEC): 124.33%
- remaining activity at 1 µM (SRPK1): 105%
- % enzyme activity (CDK3/cyclin E): 85.35%
- % enzyme activity (LIMK2): 102.22%
- % enzyme activity (PKAcb): 98.30%
- % enzyme activity (RAF1): 84.08%
- remaining activity at 1 µM (ROS/ROS1): 95.6%
- % enzyme activity (CAMK1b): 99.74%
- % enzyme activity (FAK/PTK2): 96.05%
- remaining activity at 1 µM (IRAK4): 88.3%
- remaining activity at 1 µM (SSTK/TSSK6): 110%
- remaining activity at 1 µM (CAMK2d): 93.6%
- % enzyme activity (PBK/TOPK): 94.31%
- remaining activity at 1 µM (FGFR1 [1]): 102%
- remaining activity at 1 µM (CLK2): 88.3%
- remaining activity at 1 µM (PKA): 98%
- % enzyme activity (PLK4/SAK): 93.89%
- remaining activity at 1 µM (KDR/VEGFR2): 97.3%
- % enzyme activity (MRCKa/CDC42BPA): 102.98%
- % enzyme activity (HPK1/MAP4K1): 55.64%
- % enzyme activity (MST1/STK4): 99.22%
- % enzyme activity (PKCeta): 96.60%
- remaining activity at 1 µM (PHKg2): 95.8%
- % enzyme activity (ITK): 95.85%
- remaining activity at 1 µM (VRK1): 109%
- % enzyme activity (RIPK5): 83.86%
- % enzyme activity (EPHB2): 95.97%
- remaining activity at 1 µM (SGK2): 95.8%
- % enzyme activity (KSR1): 92.67%
- % enzyme activity (FGFR1 [2]): 101.63%
- % enzyme activity (CAMK1a): 91.83%
- % enzyme activity (PKCtheta): 95.99%
- remaining activity at 1 µM (STK38/NDR1): 91.5%
- remaining activity at 1 µM (PIM3): 107%
- % enzyme activity (CAMK1g): 97.85%
- remaining activity at 1 µM (JNK1): 86.4%
- remaining activity at 1 µM (CDK1/cyclin E): 100%
- % enzyme activity (CLK4): 93.34%
